Data from PMC9779928, “Tartrate resistant acid phosphatase 5 (TRAP5) mediates immune cell recruitment in a murine model of pulmonary bacterial infection” (Frontiers in Immunology, 2022).
Results are given in words; binding and its absence hold for the method and conditions named. Binding seen in cells or lysates may run through a third protein. Some entries that bind do so weakly or less than the wild type.

Amino acid sequences for entries named in this document (tags omitted). Residues count along the entry.
UniProt P10451, residues 17-314: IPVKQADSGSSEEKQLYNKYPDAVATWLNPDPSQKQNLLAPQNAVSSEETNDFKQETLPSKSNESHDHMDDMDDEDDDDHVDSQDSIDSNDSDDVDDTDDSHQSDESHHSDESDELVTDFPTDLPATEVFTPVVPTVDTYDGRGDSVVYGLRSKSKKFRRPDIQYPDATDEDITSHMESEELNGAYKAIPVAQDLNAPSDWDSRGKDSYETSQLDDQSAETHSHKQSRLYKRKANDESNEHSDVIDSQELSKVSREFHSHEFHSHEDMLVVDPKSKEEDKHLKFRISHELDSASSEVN
UniProt P13686, residues 22-325: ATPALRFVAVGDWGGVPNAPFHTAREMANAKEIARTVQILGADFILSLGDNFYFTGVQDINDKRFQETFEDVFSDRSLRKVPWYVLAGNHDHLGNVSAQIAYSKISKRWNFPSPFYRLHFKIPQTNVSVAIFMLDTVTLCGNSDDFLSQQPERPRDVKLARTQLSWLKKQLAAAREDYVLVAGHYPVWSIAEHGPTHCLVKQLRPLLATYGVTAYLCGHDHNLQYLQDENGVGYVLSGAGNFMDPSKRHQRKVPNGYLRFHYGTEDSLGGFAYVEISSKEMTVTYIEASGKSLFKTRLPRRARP

Biological target: osteopontin (endogenous in human lung tissue) (human (endogenous in lung tissue)) (UniProt P10451)
Assay: proximity ligation; Navinci proximity ligation on formalin-fixed paraffin sections of human lung (CF and control donors); rabbit anti-OPN serum and murine monoclonal anti-TRAP5; chromogenic read-out

For “tartrate resistant acid phosphatase 5, isoform 5a (endogenous in human lung tissue) (from UniProt P13686 22-325) (enzyme)”, the binding was “binds”.
